Here are results for 30 molecules from the supplement of paper PMC12889115.

In this test the test system is Salmonella enterica serovar Typhimurium SL1344. In words: bacterial growth OD600 after 18 h with compound and polymyxin B; higher = more bacterial growth (less inhibition). Conditions: 50 µM, Mueller-Hinton broth.

Each structure is given as a SMILES string. The list shows a part of the results. These are raw signals, not scaled to a control.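 In the initial screen, polymyxin B was used at a concentration that permeabilizes Salmonella's outer membrane but not its inner membrane. Maximum growth was set by DMSO wells with or without polymyxin B. Since plates varied, data were ranked per plate, and compounds giving the lowest OD600 advanced as hits.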

As to `Cc1oc(-c2cccc(NC(=O)CCc3cccnc3)c2)nc1CNC(=O)Cc1cccc(F)c1F`, the “bacterial growth OD600” value (polymyxin B 0.75 µg/mL) stood at 0.803.
As for `Cc1ccccc1C1(CC(=O)N2CCN(c3cnccn3)CC2)CC(=O)N(Cc2ccccc2)C1=O` (stereo not given), where the note is “polymyxin B 0.75 µg/mL”, the “bacterial growth OD600” value was determined as 0.613.
On the same count and under the same terms, then `O=C1O[C@@H]2CN(Cc3ccncc3)C[C@@H]2N1CCc1ccc(F)cc1`, with 0.942; and `CCN(Cc1ccccc1)C(=O)c1cc(NC(=O)COC)cc2ncn(Cc3ccc(F)cc3)c12`, with 0.849.
`CC(C)Cc1ccc(CN2CC[C@@H](N3CCN(c4ccccn4)CC3)[C@H](O)C2)s1`: the “bacterial growth OD600” value (polymyxin B 0.75 µg/mL) is 0.689.
On the same count and under the same terms, the result for `CCOC(=O)C1CCCN(Cc2c(C(=O)N(C)Cc3ccccc3)nc3ccccn23)C1` (stereo not given) reads 0.529.
In the case of `O=C(c1ccccn1)C1CCCN(C(=O)Cn2nnnc2CN2CCCC2)C1` (stereo not given), the “bacterial growth OD600” value (polymyxin B 1 µg/mL) came out at 0.922.
In the case of `CN(C)C1CCN(C(=O)C2(N(C)CCc3ccccc3)Cc3ccccc3C2)C1` (stereo not given), where the note is “polymyxin B 1 µg/mL”, the “bacterial growth OD600” value worked out at 0.872.
On the same count and under the same terms, the result for `CN(Cc1nc(-c2ccc(Cl)cc2)no1)C(C1CC1)C1CC1` reads 0.716.
As to `CN(c1ncccc1CNC(=O)c1ccc[n+]([O-])c1)C1CCCCC1`, the “bacterial growth OD600” value (polymyxin B 0.75 µg/mL) worked out at 0.961.
Regarding `COc1ccc(Cl)cc1NC(=O)CCC1CCCN(C(=O)CCc2ccncc2)C1` (stereo not given), the “bacterial growth OD600” value (polymyxin B 1 µg/mL) worked out at 0.874.
On the same count and under the same terms, then `COc1c(C)cc(C(=O)C2CCCN(Cc3cnc(SC)nc3)C2)cc1C` (stereo not given), with 0.661.
Take `COc1ccc(CC2(CCC(=O)N3CCN(c4cccc(C)c4C)CC3)CCC(=O)N2)cc1OC` (stereo not given): the “bacterial growth OD600” value (polymyxin B 0.75 µg/mL) was determined as 0.764.
Take `COCCCN1C(=O)CC(CC(=O)N(C)CCn2nc(C)cc2C)(c2ccccc2OC)C1=O` (stereo not given): the “bacterial growth OD600” value (polymyxin B 0.75 µg/mL) was 0.836.
On to `COc1cc(CN2CCN(Cc3ccc(OC(C)C)cc3)CC2CCO)cc(OC)c1` (stereo not given), for which, under “polymyxin B 1 µg/mL”, the “bacterial growth OD600” value worked out at 0.871.
Consider `COCc1ccc(C(=O)N2CCC(C(Cc3cccc(OC)c3)N(C)C(=O)c3ccn(C)n3)CC2)o1` (stereo not given), for which the “bacterial growth OD600” value (polymyxin B 0.75 µg/mL) was determined as 0.726.
In the case of `O=C(c1cn(Cc2ccccc2Cl)nn1)N1CCC(c2ccccc2F)C1` (stereo not given), for the setting “polymyxin B 1 µg/mL”, the “bacterial growth OD600” value was 0.388.
`COC(=O)c1c(OCCCc2ccccc2)cc(=O)n2c1CCN(C(=O)c1ccc(F)cc1F)CC2`: the “bacterial growth OD600” value (polymyxin B 0.75 µg/mL) is 0.789.
Same read-out and setting: then `COc1cccc(-c2cnc(-c3ccncc3)nc2C2CCN(Cc3ccc(OC)c(C)c3)CC2)c1`, with 0.816.
On to `COc1cc(CN2CCN(Cc3cccc4c3OCO4)CC2CCO)cc(OC)c1` (stereo not given), for which the “bacterial growth OD600” value (polymyxin B 1 µg/mL) came to 1.03.
Consider `O=C(CC12CC3CC(CC(C3)C1)C2)N1CCCC(CO)(Cc2ccc(F)cc2)C1` (stereo not given), for which the “bacterial growth OD600” value (polymyxin B 0.75 µg/mL) was 0.139.
For `COC(=O)CCCC(=O)N1CCC(CCC(=O)Nc2cccc(OC)c2)CC1`, the “bacterial growth OD600” value (polymyxin B 1 µg/mL) amounted to 0.888.
Consider `CC(Cc1ccccn1)NC(=O)CN1Cc2ccccc2OC(c2ccccc2F)C1` (stereo not given), for which the “bacterial growth OD600” value (polymyxin B 0.75 µg/mL) stood at 0.003.
`O=C(c1coc(Cn2cnc3ccccc32)n1)N1CCC(C2CCCCC2)C1` (stereo not given): the “bacterial growth OD600” value (polymyxin B 1 µg/mL) is 0.012.
Turning to `Cc1ccccc1-n1ncc(C(C)NC(=O)C2CC2)c1C` (stereo not given), the “bacterial growth OD600” value (polymyxin B 1 µg/mL) stood at 0.946.
On to `Cc1nc(N2CCC(C(=O)NCC3CC3)CC2)nc2cc(S(C)(=O)=O)ccc12`, for which, where the note is “polymyxin B 0.75 µg/mL”, the “bacterial growth OD600” value turned out to be 0.805.
On the same count and under the same terms, then `CCn1ccnc1CN1CCCC(CCc2ccc(OC)cc2)C1` (stereo not given), with 0.834.
On the same count and under the same terms, then `COc1ccc(C(=O)N2CCOc3c(cc(-c4cccnc4)cc3OCCc3cccs3)C2)c(OC)c1`, with 0.092; and `c1ccc(C(CC2CN(Cc3c[nH]cn3)CCO2)c2ccccc2)cc1` (stereo not given), with 0.542.
On to `O=C(c1cccs1)C1CCCN(Cc2nc(CCc3ccccc3)no2)C1` (stereo not given), for which the “bacterial growth OD600” value (polymyxin B 1 µg/mL) was determined as 1.03.
